Reference: PubChem BioAssay AID1259290 (Sanger Institute, 2017)
Assay: 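Identify kinases needed for colorectal cancer cell survival, with or without anchor drugs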 (primary screen). System: human SNUC1 colorectal cancer cells. Reagent: siRNA pool against human genes. Treatment: anchor drugs BYL719 1 µM, cetuximab 5 µg/ml or trametinib 10 nM, or DMSO vehicle alone. Measured: 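Viability averaged over replicates and scaled to non-targeting siRNA, robust z-score with no drug, and synergy scores by drug for BYL719, cetuximab and trametinib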. Scale: viability z-score, siRNA alone: higher = more viable cells; low values mean essential gene. Rule for the call: 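Essential when the robust viability z-score with siRNA alone falls below -3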. Meaning of the calls: active = essential: knock-down alone cut viability (z below -3); inactive = no clear viability loss with knock-down alone.
Shown is a random part of 794 reagents tested. Over the whole deposit, 9 (1.1%) were called active. 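Calls rest on knock-down alone, not drug synergy; synergy above 0.15 was grouped apart and does not affect calls.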 Entries without a mark were called inactive. Not all columns of the deposit are shown. Not given: the amount of reagent, the time to read-out.

| target gene | viability z-score, siRNA alone |
| --- | --- |
| DSTYK | 0.936 |
| PIK3CD | 0.936 |
| PIP5KL1 | -1.46 |
| TP53RK | -0.244 |
| PAK1 | 0.936 |
| TGFBR1 | 0.936 |
| BLK | -0.367 |
| LIMK2 | -0.81 |
| DCK | -2.82 |
| RIPK3 | -0.985 |
| STYK1 | -0.39 |
| MAP3K19 | -2.45 |
| AKAP9 | 0.936 |
| APC | -0.407 |
| AMER1 | 0.936 |
| PIK3C3 | 0.936 |
| STK24 | 0.936 |
| EFNA5 | -0.411 |
| TGFBR3 | 0.936 |
| MPP2 | 0.675 |
| PRAG1 | 0.936 |
| SMAD4 | -1.31 |
| PANK4 | -1.59 |
| SGK1 | 0.648 |
| MINK1 | -2.79 |
| RPS6KB2 | -0.962 |
| DIS3 | 0.936 |
| PIK3CG | 0.682 |
| ULK3 | 0.663 |
| LATS2 | -0.941 |
| ACO1 | 0.545 |
| TBK1 | 0.16 |
| UCK1 | -1.39 |
| DCLK1 | -0.687 |
| TCF12 | 0.936 |
| PTK6 | 0.243 |
| PRKACG | 0.936 |
| NEK10 | -0.367 |
| HIPK4 | 0.929 |
| PRKACA | 0.25 |
| PRKAB2 | -0.381 |
| PRKCB | 0.244 |
| BRWD1 | -2.02 |
| PRKAG3 | -1.4 |
| BRD4 | -1.65 |
| PLK3 | 0.0893 |
| TAOK2 | -0.906 |
| FLT3 | 0.0396 |
| MYO3B | -0.261 |
| BRSK2 | 0.827 |

Single entries from the list:
Under “viability z-score, siRNA alone”, MPP2 has 0.675
MYO3B, viability z-score, siRNA alone → -0.261
Under “viability z-score, siRNA alone”, RIPK3 has -0.985
TGFBR3, viability z-score, siRNA alone: 0.936
Under “viability z-score, siRNA alone”, MINK1 shows -2.79
Entry for UCK1 under “viability z-score, siRNA alone”: -1.39
